± gives the standard deviation of the averaged measurements. Some of the results follow.
tested on: APPdp1-6 iPSC-derived neurons; assay: pThr231Tau/total Tau ratio Z-score vs DMSO vehicle wells; higher = more pThr231Tau relative to total Tau; conditions: 5 µM; treatment time 5 days

Compound | pThr231Tau/total Tau ratio Z-score
CC[C@H](C)C(=O)O[C@H]1CCC=C2C=C[C@H](C)[C@H](CC[C@@H]3C[C@@H](O)CC(=O)O3)[C@H]21 [Prestw-1441] | -1.42 ± 1.4
Nc1cc(C(Cl)=C(Cl)Cl)c(S(N)(=O)=O)cc1S(N)(=O)=O [Prestw-540] | -0.0793 ± 1.6
Cc1c(N(C)CS(=O)(=O)O)c(=O)n(-c2ccccc2)n1C [Prestw-713] | -0.829 ± 1.4
CNCC(O)c1ccc(OC(=O)C(C)(C)C)c(OC(=O)C(C)(C)C)c1 (stereo not given) [Prestw-632] | 1.25 ± 0.52
CCN(CC)CCc1nc(-c2ccccc2)no1 [Prestw-826] | -0.393 ± 1.9
CCc1cn([C@H]2C[C@H](O)[C@@H](CO)O2)c(=O)[nH]c1=O [EDOXUDINE    Therap cat: antiviral] | 0.43 ± 1.2
CC(C)NC[C@@H](O)COc1cccc2ccccc12 [Prestw-1081] | 0.372 ± 0.83
CC(C)NC[C@@H](O)COc1cccc2ccccc12 [Prestw-1075] | 0.717 ± 0.12
Oc1cc(O)c2c(c1)O[C@@H](c1ccc(O)c(O)c1)[C@H](O)C2 [Catechin] | -1.16 ± 1.8
CCCNCC(O)COc1ccccc1C(=O)CCc1ccccc1 (stereo not given) [Prestw-499] | -0.889 ± 1.6
NC(=O)C(c1ccccc1)(c1ccccc1)[C@@H]1CCN(CCc2ccc3c(c2)CCO3)C1 [Prestw-1514] | -0.0439 ± 0.33
COc1cc([C@@H]2c3cc4c(cc3[C@@H](O[C@@H]3O[C@@H]5CO[C@@H](C)O[C@H]5[C@H](O)[C@H]3O)[C@H]3COC(=O)[C@H]23)OCO4)cc(OC)c1O [Prestw-396] | -1.94 ± 0.88
COc1ccccc1OCC(O)CN1CCN(CC(=O)Nc2c(C)cccc2C)CC1 (stereo not given) [Prestw-1092] | 0.448 ± 0.52
C[C@H]1C[C@@H]2[C@H]([C@@H](O)C[C@@]3(C)[C@H]2CC[C@]3(O)C(=O)CO)[C@@]2(C)C=CC(=O)C=C12 [Prestw-279] | -0.105 ± 0.027
CC(=O)O[C@]1(C(C)=O)CC[C@H]2[C@@H]3C[C@H](C)C4=CC(=O)CC[C@]4(C)[C@H]3CC[C@@]21C | 0.567 ± 1.5
O=C(O)c1cc(-c2ccccc2)nc2ccccc12 | 0.461 ± 0.32
CC(C)NCC(O)c1ccc2ccccc2c1 (stereo not given) [Prestw-974] | -0.774 ± 0.44
Nc1nc2n[nH]nc2c(=O)[nH]1 [Prestw-1] | 0.436 ± 0.22
CN(C)c1nc(N(C)C)nc(N(C)C)n1 [Prestw-946] | -0.17 ± 0.39
NC(=O)c1ccc([N+](=O)[O-])cc1Cl [AKLOMIDE    Therap cat: antiprotosoal] | 1.82 ± 1.6
O=C1OCCN1/N=C/c1ccc([N+](=O)[O-])o1 [Prestw-808] | -0.113 ± 0.3
Cc1c(O)c(=O)ccn1C | 1.36 ± 0.81
O=S(=O)(O)c1cc(O)ccc1O [Prestw-1015] | -0.352 ± 0.89
CCC(=O)O[C@]1(C(=O)CCl)[C@@H](C)C[C@H]2[C@@H]3CCC4=CC(=O)C=C[C@]4(C)[C@@]3(F)[C@@H](O)C[C@@]21C [Prestw-781] | -0.0907 ± 0.94
c1ccc([C@H]2CN3CCSC3=N2)cc1 [Prestw-182] | 0.0644 ± 0.63
COc1ccc(C2CNC(=O)C2)cc1OC1CCCC1 (stereo not given) [Prestw-924] | 1.94 ± 2.5
COc1ccc2[nH]cc(CCNC(C)=O)c2c1 [Prestw-458] | 0.382 ± 0.086
NC[C@H]1O[C@H](O[C@H]2[C@H](O[C@@H]3O[C@H](CO)[C@@H](O)[C@H]3O)[C@@H](O)[C@H](N)C[C@@H]2N)[C@H](N)[C@@H](O)[C@@H]1O [Prestw-758] | 0.93 ± 0.84

Compound | pThr231Tau/total Tau ratio Z-score
COc1ccc(C(=O)NCc2cccnc2)cc1C(=O)NCc1cccnc1 [Prestw-119] | 0.166 ± 0.26
CN(C)CCOC1=Cc2ccccc2Sc2ccc(Cl)cc21 [Prestw-1368] | -1.47 ± 0.36
CCN(Cc1ccncc1)C(=O)C(CO)c1ccccc1 (stereo not given) [Prestw-228] | -0.0495 ± 1.1
O=C(NCCNCC(O)COc1ccc(O)cc1)N1CCOCC1 (stereo not given) [Prestw-923] | 1.08 ± 0.73
Cc1ncc([N+](=O)[O-])n1CCO [Prestw-81] | -0.0106 ± 0.53
CCN(CC)CC#CCOC(=O)C(O)(c1ccccc1)C1CCCCC1 (stereo not given) [Prestw-287] | -0.0872 ± 0.44
OC(CCN1CCCCC1)(c1ccccc1)C1CC2C=CC1C2 (stereo not given) [Prestw-502] | 0.341 ± 0.23
CN1C2CCCC1CC(NC(=O)c1nn(C)c3ccccc13)C2 (stereo not given) [Prestw-1187] | 0.467 ± 0.035
CC(C)N1CCN(c2ccc(OCC3COC(Cn4cncn4)(c4ccc(Cl)cc4Cl)O3)cc2)CC1 (stereo not given) [Prestw-495] | -1.22 ± 0.028
O=C(CCCN1CC=C(n2c(=O)[nH]c3ccccc32)CC1)c1ccc(F)cc1 [Prestw-360] | -1.55 ± 0.81
CCN(CC)CCNC(=O)c1cc(S(C)(=O)=O)ccc1OC [Prestw-216] | -0.741 ± 0.31
Oc1c(I)cc(I)c2cccnc12 [IODOQUINOL    Therap cat:  Anti-amebic] | 1.11 ± 1.1
C#CCN(C)Cc1ccccc1 [Prestw-183] | 0.256 ± 1.9
C[C@H]1[C@@H](O)O[C@@H]2O[C@@]3(C)CC[C@H]4[C@H](C)CC[C@@H]1[C@@]24OO3 | -0.507 ± 1.1
CCn1cc(C(=O)O)c(=O)c2ccc(C)nc21 [Prestw-1447] | 0.232 ± 0.42
COc1ccc2cc(CCC(C)=O)ccc2c1 [Prestw-909] | -0.846 ± 0.83
O=C(O)CCC(=O)OC[C@@H](NC(=O)C(Cl)Cl)[C@H](O)c1ccc([N+](=O)[O-])cc1 | 1.11 ± 2.5
O[C@H]1[C@H](O)[C@@H](O)[C@H](O)[C@@H](O)[C@@H]1O [Scyllitol] | -0.682 ± 0.15
CC(=O)N[C@@H](CC(=O)N[C@@H](CCC(=O)O)C(=O)O)C(=O)O [Prestw-1091] | 0.251 ± 0.12
CC(=O)N[C@@H](CC(=O)N[C@@H](CCC(=O)O)C(=O)O)C(=O)O | -0.0487 ± 0.46
Cc1ccc(S(=O)(=O)NC(=O)NN2CC3CCCC3C2)cc1 (stereo not given) [Prestw-558] | 0.182 ± 1.8
COc1cc2nc(N3CCN(C(=O)c4ccco4)CC3)nc(N)c2cc1OC [Prestw-947] | -1.09 ± 0.57
NCCS(=O)(=O)O [Taurine] | 0.707 ± 0.41
CCn1cc(C(=O)O)c(=O)c2cnc(N3CCNCC3)nc21 [Prestw-897] | 0.177 ± 0.38
COc1nc(C)nc(Cl)c1NC1=NCCN1 [Prestw-1016] | 0.62 ± 0.048
CCCCC(C)(O)C/C=C/[C@H]1[C@H](O)CC(=O)[C@@H]1CCCCCCC(=O)OC (stereo not given in full) [Prestw-1443] | 0.0991 ± 0.38
Cc1ncc(CSSCc2cnc(C)c(O)c2CO)c(CO)c1O | -0.132 ± 0.75

Looked up above:
For pThr231Tau/total Tau ratio Z-score, CC(=O)N[C@@H](CC(=O)N[C@@H](CCC(=O)O)C(=O)O)C(=O)O is listed with -0.0487 ± 0.46
For pThr231Tau/total Tau ratio Z-score, CC[C@H](C)C(=O)O[C@H]1CCC=C2C=C[C@H](C)[C@H](CC[C@@H]3C[C@@H](O)CC(=O)O3)[C@H]21 [Prestw-1441] is listed with -1.42 ± 1.4
